Results are given in words; binding and its absence hold for the method and conditions named.
Target: T1, ABI5 (Arabidopsis thaliana) (UniProt Q9SJN0)
T1 sequence: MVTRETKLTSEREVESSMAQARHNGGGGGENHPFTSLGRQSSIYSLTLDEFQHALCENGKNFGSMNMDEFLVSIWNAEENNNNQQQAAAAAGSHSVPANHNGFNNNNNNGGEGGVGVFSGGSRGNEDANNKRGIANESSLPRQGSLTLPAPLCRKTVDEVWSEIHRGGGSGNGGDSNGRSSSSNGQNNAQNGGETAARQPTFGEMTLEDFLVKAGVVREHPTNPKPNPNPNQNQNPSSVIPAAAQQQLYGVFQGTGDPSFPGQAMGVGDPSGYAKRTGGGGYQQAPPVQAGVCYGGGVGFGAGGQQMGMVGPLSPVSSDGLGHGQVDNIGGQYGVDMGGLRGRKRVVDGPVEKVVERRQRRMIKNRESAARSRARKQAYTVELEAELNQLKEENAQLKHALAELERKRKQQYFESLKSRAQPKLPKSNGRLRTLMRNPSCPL
Experiment: two-hybrid; yeast two-hybrid; X-gal plates and liquid assay (Clontech Yeast Protocols Handbook); BBX21 domains fused to GAL4-AD

## C-terminal domain of BBX21 (Arabidopsis thaliana) (domain or fragment)
  binding: no binding

## N-terminal domain of BBX21 (the B-box domain) (Arabidopsis thaliana) (domain or fragment)
  binding: no binding
